Source: article PMC9065044
These are yes or no findings as the source states them, for the method shown. Binding seen in cells or lysates may run through a third protein. Some results given as binding are weak or reduced against the parent protein; the word gives no strength.

Columns and labels:
[1] = target: T1, POU domain, class 6, transcription factor 1 (POU6F1), endogenous (human (endogenous in A549)) (UniProt Q14863); assay: co-IP; endogenous proteins in A549 cells; IP followed by western blotting; IgG as negative control; which protein was precipitated is not told
T1 sequence: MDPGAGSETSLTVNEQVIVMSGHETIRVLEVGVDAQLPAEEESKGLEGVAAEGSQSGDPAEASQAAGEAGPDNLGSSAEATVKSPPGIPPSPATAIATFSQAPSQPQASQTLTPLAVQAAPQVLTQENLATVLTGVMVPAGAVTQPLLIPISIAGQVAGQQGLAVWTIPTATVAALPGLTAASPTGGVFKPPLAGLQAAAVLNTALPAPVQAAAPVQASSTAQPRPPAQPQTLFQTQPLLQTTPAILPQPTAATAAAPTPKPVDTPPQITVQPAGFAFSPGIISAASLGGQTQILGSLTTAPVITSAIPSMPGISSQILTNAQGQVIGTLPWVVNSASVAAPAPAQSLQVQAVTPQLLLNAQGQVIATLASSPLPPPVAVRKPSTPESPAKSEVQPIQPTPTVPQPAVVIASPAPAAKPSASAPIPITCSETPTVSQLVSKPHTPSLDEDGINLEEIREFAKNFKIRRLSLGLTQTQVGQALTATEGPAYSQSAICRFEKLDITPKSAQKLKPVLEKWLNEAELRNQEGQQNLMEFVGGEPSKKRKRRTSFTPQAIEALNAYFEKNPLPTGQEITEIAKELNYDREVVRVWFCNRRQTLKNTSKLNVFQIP

[2] = target: T2, POU6F1, overexpressed in A549 cells (mock or POU6F1) (human) (UniProt Q14863); assay: co-IP; A549 cells transfected with mock or POU6F1; co-IP and western blotting; which protein was precipitated is not told
T2 sequence: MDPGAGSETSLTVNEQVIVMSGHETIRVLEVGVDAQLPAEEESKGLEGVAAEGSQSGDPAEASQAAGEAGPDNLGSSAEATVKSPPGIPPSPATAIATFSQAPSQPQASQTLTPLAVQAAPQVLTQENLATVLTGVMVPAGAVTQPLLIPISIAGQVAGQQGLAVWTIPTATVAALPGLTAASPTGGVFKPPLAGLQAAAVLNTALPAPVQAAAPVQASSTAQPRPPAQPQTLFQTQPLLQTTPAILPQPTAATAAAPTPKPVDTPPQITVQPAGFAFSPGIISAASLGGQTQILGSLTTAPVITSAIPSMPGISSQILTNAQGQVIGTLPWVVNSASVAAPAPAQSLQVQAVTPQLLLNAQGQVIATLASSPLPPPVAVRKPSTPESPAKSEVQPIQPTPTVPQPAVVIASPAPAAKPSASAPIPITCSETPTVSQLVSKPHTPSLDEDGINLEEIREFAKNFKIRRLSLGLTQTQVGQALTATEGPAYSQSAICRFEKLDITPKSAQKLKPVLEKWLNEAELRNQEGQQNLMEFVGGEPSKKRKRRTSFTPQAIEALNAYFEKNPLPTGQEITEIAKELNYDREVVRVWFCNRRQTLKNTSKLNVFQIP

B1: Retinoid-related orphan receptor alpha (RORA), endogenous (protein, UniProt P35398 1-523)
chain: MESAPAAPDPAASEPGSSGADAAAGSRETPLNQESARKSEPPAPVRRQSYSSTSRGISVTKKTHTSQIEIIPCKICGDKSSGIHYGVITCEGCKGFFRRSQQSNATYSCPRQKNCLIDRTSRNRCQHCRLQKCLAVGMSRDAVKFGRMSKKQRDSLYAEVQKHRMQQQQRDHQQQPGEAEPLTPTYNISANGLTELHDDLSNYIDGHTPEGSKADSAVSSFYLDIQPSPDQSGLDINGIKPEPICDYTPASGFFPYCSFTNGETSPTVSMAELEHLAQNISKSHLETCQYLREELQQITWQTFLQEEIENYQNKQREVMWQLCAIKITEAIQYVVEFAKRIDGFMELCQNDQIVLLKAGSLEVVFIRMCRAFDSQNNTVYFDGKYASPDVFKSLGCEDFISFVFEFGKSLCSMHLTEDEIALFSAFVLMSADRSWLQEKVKIEKLQQKIQLALQHVLQKNHREDGILTKLICKVSTLRALCGRHTEKLMAFKAIYPDIVRLHFPPLYKELFTSEFEPAMQIDG
binding [1]: binds
binding [2]: binds
